Data from paper PMC5794859.
Results are given in words; binding and its absence hold for the method and conditions named.

Biological target: T1, AtE (cytochrome P450 monooxygenase) (Aspergillus terreus) (UniProt Q0CJ57)
T1 sequence: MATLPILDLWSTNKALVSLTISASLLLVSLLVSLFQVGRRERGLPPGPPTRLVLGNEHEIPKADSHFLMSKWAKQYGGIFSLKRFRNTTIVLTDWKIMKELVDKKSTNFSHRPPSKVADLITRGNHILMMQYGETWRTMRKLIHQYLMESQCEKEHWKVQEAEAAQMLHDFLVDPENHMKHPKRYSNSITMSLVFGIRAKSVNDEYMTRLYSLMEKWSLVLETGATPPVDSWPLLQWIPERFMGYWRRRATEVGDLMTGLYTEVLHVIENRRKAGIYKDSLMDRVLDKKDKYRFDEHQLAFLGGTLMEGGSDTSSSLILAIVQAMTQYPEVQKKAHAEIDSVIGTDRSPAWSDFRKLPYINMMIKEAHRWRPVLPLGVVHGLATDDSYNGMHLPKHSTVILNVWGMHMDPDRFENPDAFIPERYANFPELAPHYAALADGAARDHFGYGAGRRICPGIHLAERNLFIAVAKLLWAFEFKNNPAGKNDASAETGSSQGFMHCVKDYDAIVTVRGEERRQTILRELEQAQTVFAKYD
Assay: two-hybrid; yeast two-hybrid (Y2H) assay on AtG and AtE; details only in Supplementary Fig. S7

binding: no binding
B1: AtG (putative cytochrome P450 monooxygenase) (enzyme, UniProt Q0CJ54 1-157)
chain: MISSVPYRERQSIGGIRSCPHSPASSRFPRVNDSAPTVFQGWDVPIGTPISMNIWNTHYNKDFFPGPTEFWPERWMGEGTRELEKYLVPFGSGSRMCTGQNLSIAEQVLTIATLFRNYELELYQTTKKNVVMASYCMISLPGSESPGIQVKVRKTVQ
